Experimental data reported in article PMC2374977.
No constants are given. Whether binding was seen depends on the method and setting. For some of these results: Binding seen in cells or lysates may run through a third protein. Some entries that bind do so weakly or less than the wild type. For some of these results: Tags and fused reporters may be left off the sequences shown.

Protein sequences, listed by entry. Tags and fused reporters are not part of them.
UniProt Q92731: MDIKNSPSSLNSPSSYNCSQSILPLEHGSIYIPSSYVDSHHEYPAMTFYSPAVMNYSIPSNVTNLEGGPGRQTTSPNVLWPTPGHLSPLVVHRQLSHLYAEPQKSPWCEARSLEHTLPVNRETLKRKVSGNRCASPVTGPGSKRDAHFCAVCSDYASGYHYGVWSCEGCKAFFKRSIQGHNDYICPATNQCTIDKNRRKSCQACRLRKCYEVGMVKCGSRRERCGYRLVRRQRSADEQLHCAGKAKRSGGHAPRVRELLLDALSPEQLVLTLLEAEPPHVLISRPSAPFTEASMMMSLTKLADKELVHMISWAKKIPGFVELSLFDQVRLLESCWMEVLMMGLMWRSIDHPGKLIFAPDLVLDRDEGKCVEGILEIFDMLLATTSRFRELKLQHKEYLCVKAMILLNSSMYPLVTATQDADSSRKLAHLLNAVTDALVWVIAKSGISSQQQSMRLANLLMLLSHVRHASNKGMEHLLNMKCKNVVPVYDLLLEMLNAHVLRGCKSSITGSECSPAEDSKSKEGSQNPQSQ
UniProt P03372: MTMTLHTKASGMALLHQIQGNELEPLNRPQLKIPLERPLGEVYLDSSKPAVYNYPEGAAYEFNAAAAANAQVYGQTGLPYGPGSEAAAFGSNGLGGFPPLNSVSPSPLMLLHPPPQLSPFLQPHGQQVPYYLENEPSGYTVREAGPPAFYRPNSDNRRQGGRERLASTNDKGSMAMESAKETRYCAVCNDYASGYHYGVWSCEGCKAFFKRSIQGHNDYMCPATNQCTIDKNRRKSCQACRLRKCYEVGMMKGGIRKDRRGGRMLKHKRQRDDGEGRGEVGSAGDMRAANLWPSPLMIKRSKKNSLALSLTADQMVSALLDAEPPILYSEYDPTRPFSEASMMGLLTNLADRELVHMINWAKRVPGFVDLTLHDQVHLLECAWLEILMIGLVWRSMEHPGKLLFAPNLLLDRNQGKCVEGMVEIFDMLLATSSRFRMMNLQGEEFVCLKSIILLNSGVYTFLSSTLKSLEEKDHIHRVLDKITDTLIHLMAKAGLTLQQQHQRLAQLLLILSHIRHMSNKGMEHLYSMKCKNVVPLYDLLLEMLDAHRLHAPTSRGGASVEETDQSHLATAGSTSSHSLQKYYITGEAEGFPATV

What was measured:
[1] = target: GST-FOXO3a amino-terminal domain (amino acids 1 to 300) (UniProt O43524); assay: pull-down; GST pull-down in vitro: whole cell lysates from 293T cells incubated with GST-FOXO3a fusion proteins; IB with an antibody against ER-α or ER-β; only the target purified
[2] = target: T1, GST-FOXO3a carboxyl-terminal domain (amino acids 301 to 673) (UniProt O43524); assay: as above
T1 sequence: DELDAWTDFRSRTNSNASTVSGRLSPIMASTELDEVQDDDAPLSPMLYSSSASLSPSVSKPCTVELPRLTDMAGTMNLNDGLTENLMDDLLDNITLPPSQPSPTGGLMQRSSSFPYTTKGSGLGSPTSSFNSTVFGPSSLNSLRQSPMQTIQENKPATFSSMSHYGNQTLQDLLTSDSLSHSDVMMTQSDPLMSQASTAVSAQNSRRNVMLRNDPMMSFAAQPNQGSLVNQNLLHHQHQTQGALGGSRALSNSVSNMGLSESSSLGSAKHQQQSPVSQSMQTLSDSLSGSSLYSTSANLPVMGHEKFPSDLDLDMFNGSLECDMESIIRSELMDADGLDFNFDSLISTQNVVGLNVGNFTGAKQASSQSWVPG

HA-ER-β = HA-ER-β (UniProt Q92731); assay: co-IP; total lysates of co-transfected 293T cells, in the presence of E2; IP with anti-HA or anti-Flag, IB with the other tag's antibody, reciprocal IP done; 4°C overnight, protein A or G sepharose
[3] = target: Flag-estrogen receptor (ER)-α (UniProt P03372); assay: as above
[4] = target: endogenous estrogen receptor (ER)-α of MCF-7 cells (human (endogenous in MCF-7)) (UniProt P03372); assay: co-IP; endogenous proteins, total lysates of MCF-7 cells with E2; IP with anti-FOXO3a, anti-ER-α or anti-ER-β, reciprocal IB
[5] = target: endogenous estrogen receptor (ER)-β of MCF-7 cells (human (endogenous in MCF-7)) (UniProt Q92731); assay: as above
[6] = target: endogenous estrogen receptor (ER)-α of MCF-7 cells (human (endogenous in MCF-7)) (UniProt P03372); assay: antibody array; Hypromatrix AntibodyArray incubated with whole-cell lysates of MCF7-FO33 cells, then horseradish peroxidase-conjugated anti-HA monoclonal antibody; positive spot at the immobilised antibody against ER-α

## ER-α in whole cell lysates from 293T cells (GST pull-down) (from UniProt P03372 1-595) (receptor)
[1]
  binding: binds

## ER-β in whole cell lysates from 293T cells (GST pull-down) (from UniProt Q92731 1-530) (receptor)
[2]
  binding: binds

## Flag-FOXO3a (from UniProt O43524 1-673)
HA-ER-β
  binding: binds

## HA-tagged FOXO3a, transiently expressed in 293T (from UniProt O43524 1-673)
[3]
  binding: binds

## endogenous FOXO3a of MCF-7 cells (from UniProt O43524 1-673)
[4]
  binding: binds
[5]
  binding: binds

## hemagglutinin (HA)-tagged FOXO3a, stably expressed in MCF-7 (MCF7-FO33) (from UniProt O43524 1-673)
[6]
  binding: binds
